Assay results from the RNAGym collection of RNA variant scans (doi:10.1126/science.aae0568).
Variants at the background level are over-represented here.

B1: tRNA (parent)
chain: GUUCCGUUGGCGUAAUGGUAACGCGUCUCCCUCCUAAGGAGAAGACUGCGGGUUCGAGUCCCGUACGGAACG

Variants of: B1
Assay: yeast fitness relative to wild type (ratio to wild type); higher = fitter; tRNA-Arg(CCU), competitive growth, 37 C, YPD
In short: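 Variants of the tRNA-Arg(CCU) gene were chemically synthesised with a 3% per-site mutation rate across 69 sites and placed at the native genomic locus in Saccharomyces cerevisiae. Six parallel replicates of the pooled strains were competed in YPD at 37°C for 24 hours, and gene amplicons from the start and end populations were read by 100-nucleotide paired-end sequencing. Darwinian fitness relative to wild type was derived from changes in genotype frequencies. Genotypes required ≥ 100 starting reads, and estimates < 0.5 were set to 0.5.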

Point of comparison: GUUCCGUUGGCGUAAUGGUAACGCGUCUCACUCCUAAGGAGAAGACUGCGGAUUCGAGUCCCGUACGGAACG [C30A G52A], yeast fitness 0.813. Against it:
- GUUCCGUUGGCGUAAUGGUAACGCGUCUCCCCCCUAUGGCGAAGACUGCGGGUUCGAGUCGCGUACGGAACG [U32C A37U A40C C61G] — lower, ≤ 0.5
- GUUCCGUUGGCGUAAUGGUAACGCGUCUCCCUCCGAAGGGGAAGACUGCGGGUGCGAGUCCCGUACGGAACG [U35G A40G U54G] — lower, ≤ 0.5
- GUUCCGUUGGCGUAAUGGUAACCCGUCUCCCUCCUAAGGAGAAGACUGCGGGUUCGAUUCCCGUACGGAACG [G23C G58U] — lower, 0.565
- GUUGCGUUGGCGUAAUGGUAACGCGUCUCCCUCCUUAGGAGAAGAUUGCGGGUUCGAGUCCCGUACAGAGCG [C4G A36U C46U G67A A70G] — lower, ≤ 0.5
- GUUCCGUGGGGGUAAUGGUAACGCGUCUCCCUCCUAAGGAGAAGACUGCGGGUUCGAGUCCCGUACGGCACG [U8G C11G A69C] — lower, ≤ 0.5
- GUUCCGUUGGCGUCAUGGUAACGCGUCUCCCUGCUAAGGAGAGGACUGCGGGUUUGAGUCCCGUACGGAACG [A14C C33G A43G C55U] — lower, ≤ 0.5
- GUUCGGUUGGCGUAAUGGUAACCCGUCUCCUUCCUACGGAGAAGACUGCGGGUUCGGGUCCCGUACUGAACG [C5G G23C C31U A37C A57G G67U] — lower, ≤ 0.5
- GUUCCGAUGGCGUAAUGGUAACGCGUCUCCCUCACAAGGAGAAGACUGCGGGUUCGAGUCCCGUACGGAACG [U7A C34A U35C] — lower, ≤ 0.5
- GUUUCGUUGGCGUUAUGGUAACGCGUCUCCCUCCUAGGGAGAAGACUGCGGGUUCGAGUCCCGUACGGAACG [C4U A14U A37G] — lower, ≤ 0.5
- GUUCCAUUGGAGUAAUGGUAACGCGUCUCCCUCCUAGGGAGAAGACUGCGGGUUCGAGUCCCGUACGGAACG [G6A C11A A37G] — lower, ≤ 0.5
- GUUCCGUUGGGGUAAUGGUAACGCGUCUCCCUCCCAAGGAGAAGACUGCGGGUUCGAGUCCCGUACGGAACG [C11G U35C] — lower, ≤ 0.5
- GCUCCGUUGGCGUAAUGGUAACGCGUCUCCCUCCUAAGGAGAAGACUGCGGGUUCGAGUAGCGUCCGGAACG [U2C C60A C61G A65C] — lower, ≤ 0.5
- GCUCCGUUGGCGUAAUGGUAACGCGUGUCCCUCCUAAGGAGAAGAUUGCGGGUUCGAGUCCCGUACGGAACG [U2C C27G C46U] — lower, 0.705
- GUUCCGUUGGCGUAAUGGUAACGCGUCUCCCUCCUAACGAGAAGACUGCGGGUUCAAGUCCCGUAGGGAACG [G38C G56A C66G] — lower, ≤ 0.5
- GUUCCGUUGGCGUAAUAGUAACGCGUCUCACUCCUAAGGAGAAGACUGCGGGUUCGUAUCCCGUACGGAACG [G17A C30A A57U G58A] — lower, ≤ 0.5
- GUUACGUUGGCGUAAUGGUAACGCGUCUCGCUCCUAAGGAGAAGACUGCGGGUUCGAGUCCCGUGCGGAACG [C4A C30G A65G] — lower, ≤ 0.5
- GUUCCGUUGGCGUAAUGGUAUCGCGUGUUCCCCCUAAGGAGAAGACUGCGGGUUCGAGUCCCGUACGGAACG [A21U C27G C29U U32C] — lower, ≤ 0.5
- GUUCUGUUGGCGUAAUGGUAACGCGUCUCCCUCCUAAGGAGAAGACUGCGGGUUCGACCCCCGUACGGAGCG [C5U G58C U59C A70G] — lower, ≤ 0.5
- GUUCCGUUGGCGUUAUGGUAACGCGUCUCCCACCUAGGGAGUAGACUGCGGGUUCGAGUCCCGUACGGAACG [A14U U32A A37G A42U] — lower, ≤ 0.5
- GUCCCGUUGGCGUAUUGGUAACGCGUCUCCCUCUUAAGGAGAAGACUGCGGGUUCGAGUCCUGUACGGAACG [U3C A15U C34U C62U] — lower, ≤ 0.5
- GUUACGUUGGCGUAAUGGUAACACGUCUCCCUCCCAAGGAGAAGACUGCGGGUUCGAGUCCCGUACGGAACG [C4A G23A U35C] — lower, ≤ 0.5
- GCUCCGUUGGCGUAAUGGUAACCUGUCUCCCUCCUGAGGAGAAGACUGCGGGUUCGUGUCCCAUACGGAACG [U2C G23C C24U A36G A57U G63A] — lower, ≤ 0.5
- GUUCCGUUGGCGUAAUGGUAACGCGUCUCCCUUUUAAGGAGAAGACUGCGGGAUCGAGUCCCGUACGGAACG [C33U C34U U53A] — lower, ≤ 0.5
- GUUCCGUUGGCGUAAUUGUAACGCGUCUCCCUCCUAUGGAGAAGACUGCGGGUUCGAGUCCCGUACGGAACG [G17U A37U] — lower, ≤ 0.5
- GUUCCGUUGGCGUAAUGGUAAGGCGUCUCCCUCCUAGGGAGAAGACUGCGGGUUCGAGUACCGUACGGAACG [C22G A37G C60A] — lower, ≤ 0.5
- GUUCCGUGGGCGUAAUGGUAACGUGUCUCCCUCCUCAGGAGAAGACUGCGGGUUCGAGUCCCGUACGGAACG [U8G C24U A36C] — lower, ≤ 0.5
- GUUCCCUUGGCGUAGUGGUAACGCGUCUCCCUCCUAAGGAGAAGACUGCGGGUUCCAGUCCCGUACGGAACG [G6C A15G G56C] — lower, ≤ 0.5
- GUUCCGUUGGCGUAAUGGUAUCGCGUCUCCCUCCUAGGGAGAAGACUGCGGGUUCGAGUCCUGUACGGAACG [A21U A37G C62U] — lower, ≤ 0.5
- GUUCCGUUGGCGUAAUGGUUACGCGUCUCCCUCCUAGGGAGAAGGCUGCGCGUUCGAGUCCCGUACGGAACG [A20U A37G A45G G51C] — lower, ≤ 0.5
- GUCCCGUUGGCGUAAUGGUAGCGCGUCUCCCUCGUAAGGAGAAGACUGCGGGUUCGAGUCCCGUACGGAACG [U3C A21G C34G] — lower, ≤ 0.5
- GUUCCGUUGGCGUAAUGGUAACGCGUCUCGCUCCUAUAGAGAAGACUGCGGGUUCGCGUCCCGUACGGAACG [C30G A37U G38A A57C] — lower, ≤ 0.5
- GUUACGUUGGCGUAAUGGCAACGCGUCUCCCUCCCAAGGAGAAGACUACGGGUUCGAGUCCCGUACGGAACG [C4A U19C U35C G48A] — lower, ≤ 0.5
- GUUUCGUUGGCGUAAUGGUAACGCGUCUCCCUCCUAAGCAGAAGACUGCGGGUUCGAGUGCCGUACGGAACG [C4U G39C C60G] — lower, ≤ 0.5
- GUUCCGUUGGCGUAAUGGUAGCGCGUCUCCCUCCUAAGGAGAAGACUGCGGGUUAGAGUCCCGUACGGAACG [A21G C55A] — lower, 0.641
- GUUCCGUUGGCGUAAUCGUAACGCGUCUCCCUCCUAAGGAGAAGAUUGCGGGUUCGAGUCCCGUACGAAACG [G17C C46U G68A] — lower, ≤ 0.5
- GUGCCGCUGGCGUAAUGGUAACGCGUAUCCCUCCUAAGGAGAAGACUGCGGGUUCGCGUCCUGUACGGAACG [U3G U7C C27A A57C C62U] — lower, ≤ 0.5
- GUUCCGUUGGCGUAAUGGUAACGCGUCUGCCUCCAAAGGAGAAGACUGCGGGUUCGAGUCUCGUACGGAACG [C29G U35A C61U] — lower, ≤ 0.5
